Test results published in US6573296B2, “Therapeutic quassinoid preparations with antineoplastic, antiviral, and herbistatic activity” (priority 1997, dated 2003).
At least one compound was matched to its structure with a doubt left.

Tested on: porcine pseudorabies virus
Details: rabbit kidney cells, visually monitored
Also: test concentration or dose not given here.

COC(=O)[C@@]12OC[C@]34[C@H]([C@@H](O)[C@@H]1O)[C@@]1(C)CC(=O)C(O)=C(C)[C@@H]1C[C@H]3OC(=O)[C@H](OC(=O)/C=C(\C)C(C)C)[C@@H]24 [bruceantin]
cytopathic effect of porcine pseudorabies virus: Inhibitory effect was also observed
